Laboratory results taken from PubChem BioAssay AID330 (DTP/NCI, 2004).
The list is a part of this screen's results and no random one: it gathers tests that were run many times, whatever their T/C, doses with no T/C, and many T/C values between a quarter and a half above the control. Further doses and runs are listed elsewhere. T/C is the treated group as % of the vehicle group. Some entries give survivors of the animals treated and no T/C: the source holds a T/C of zero for them, seemingly a mark for toxic or unscored doses. Some survivor counts are full or nearly so, which does not show that the dose was tolerated: the source hardly ever lists a survival T/C far under the control, and the zero likely stands for such cases as well. Survivors were counted at the toxicity check, usually on the fifth day, unless a day is given; later deaths do not show. Schedule codes are those of the source, taken here to give the interval after Q, in days (D) or hours (H), and the number of doses after X. Some entries were tested several times; the values are given in rising order. For survival time, this PubChem deposit counts one and a half times the control or more as active, and values a quarter to a half above the control carry no call in these data; other NCI protocols may use other cut-offs. Brackets with × count equal records among those shown. Some T/C values are followed by the survivors on the day toxicity was checked, most often the fifth; where none is given, no animal had died by that day.

System: P388 leukemia ip, CD2F1 mice, survival T/C
Assay: NCI In Vivo Anticancer Drug Screen. Data for tumor model P388 Leukemia (intraperitoneal) in CD2F1 (CDF1) mice
Conditions: T/C endpoint: median survival time, higher T/C = longer survival
[1] = dose: 100.0 mg/kg/injection, schedule: Q01DX009 (ip), vehicle: saline with Tween-80
[2] = dose: 25.0 mg/kg/injection, schedule: Q01DX009 (ip), vehicle: water
[3] = dose: 200.0 mg/kg/injection, schedule: Q01DX009 (ip), vehicle: saline with Tween-80

Compound: CO[C@H](/C(C)=C/C=C/C(C)=C/c1coc(C)n1)[C@H](C)[C@H]1C[C@@H](O)[C@@]2(C)O[C@H]2/C=C/[C@@H](C)[C@@H]2C[C@@H](CC(=O)O2)C[C@H]2O[C@@H]2C(=O)O1
- T/C (dose: 0.04 mg/kg/injection, schedule: Q01DX005 (ip), vehicle: Klucel (hydroxypropylcellulose) (HPC)): 133 % of control
- T/C (dose: 0.06 mg/kg/injection, schedule: Q01DX005 (ip), vehicle: Klucel (hydroxypropylcellulose) (HPC), evaluated on day 30): 143 % of control
- T/C (dose: 0.06 mg/kg/injection, schedule: Q01DX005 (ip), vehicle: Klucel (hydroxypropylcellulose) (HPC), evaluated on day 45): 129 % of control
- T/C (dose: 0.08 mg/kg/injection, schedule: Q01DX005 (ip), vehicle: Klucel (hydroxypropylcellulose) (HPC), evaluated on day 30): 140 % of control
- T/C (dose: 0.08 mg/kg/injection, schedule: Q01DX005 (ip), vehicle: Klucel (hydroxypropylcellulose) (HPC), evaluated on day 45): 134 % of control
- T/C (dose: 0.09 mg/kg/injection, schedule: Q01DX005 (ip), vehicle: Klucel (hydroxypropylcellulose) (HPC)): 133 % of control
- T/C (dose: 0.1 mg/kg/injection, schedule: Q01DX005 (ip), vehicle: Klucel (hydroxypropylcellulose) (HPC)): 137 and 149 % of control
- T/C (dose: 0.12 mg/kg/injection, schedule: Q01DX005 (ip), vehicle: Klucel (hydroxypropylcellulose) (HPC)): 147 % of control
- T/C (dose: 0.13 mg/kg/injection, schedule: Q01DX005 (ip), vehicle: Klucel (hydroxypropylcellulose) (HPC), evaluated on day 30): 142 and 157 % of control
- T/C (dose: 0.13 mg/kg/injection, schedule: Q01DX005 (ip), vehicle: Klucel (hydroxypropylcellulose) (HPC), evaluated on day 45): 132, 139, 143, 144, 150, 154 % of control
- T/C (dose: 0.13 mg/kg/injection, schedule: Q01DX005 (ip), vehicle: Klucel (hydroxypropylcellulose) (HPC), evaluated on day 60): 141 % of control
- T/C (dose: 0.16 mg/kg/injection, schedule: Q01DX005 (ip), vehicle: Klucel (hydroxypropylcellulose) (HPC), evaluated on day 30): 149 % of control
- T/C (dose: 0.16 mg/kg/injection, schedule: Q01DX005 (ip), vehicle: Klucel (hydroxypropylcellulose) (HPC), evaluated on day 45): 136, 144, 145, 150, 154, 160 % of control
- T/C (dose: 0.16 mg/kg/injection, schedule: Q01DX005 (ip), vehicle: Klucel (hydroxypropylcellulose) (HPC), evaluated on day 60): 148 % of control
- survivor count (dose: 0.16 mg/kg/injection, schedule: Q01DX005 (ip), vehicle: Klucel (hydroxypropylcellulose) (HPC)): 6 of 6
- T/C (dose: 0.2 mg/kg/injection, schedule: Q01DX005 (ip), vehicle: Klucel (hydroxypropylcellulose) (HPC), evaluated on day 30): 155 and 164 % of control
- T/C (dose: 0.2 mg/kg/injection, schedule: Q01DX005 (ip), vehicle: Klucel (hydroxypropylcellulose) (HPC), evaluated on day 45): 145 (2×), 149, 153, 160, 162 % of control
- T/C (dose: 0.2 mg/kg/injection, schedule: Q01DX005 (ip), vehicle: Klucel (hydroxypropylcellulose) (HPC), evaluated on day 60): 145 % of control
- T/C (dose: 0.3 mg/kg/injection, schedule: Q01DX005 (ip), vehicle: Klucel (hydroxypropylcellulose) (HPC), evaluated on day 30): 158 and 169 % of control
- T/C (dose: 0.3 mg/kg/injection, schedule: Q01DX005 (ip), vehicle: Klucel (hydroxypropylcellulose) (HPC), evaluated on day 45): 158, 165 (2×), 170 % of control
- T/C (dose: 0.3 mg/kg/injection, schedule: Q01DX005 (ip), vehicle: Klucel (hydroxypropylcellulose) (HPC), evaluated on day 60): 163 % of control
- survivor count (dose: 0.31 mg/kg/injection, schedule: Q01DX005 (ip), vehicle: Klucel (hydroxypropylcellulose) (HPC)): 6 of 6
- survivor count (dose: 0.62 mg/kg/injection, schedule: Q01DX005 (ip), vehicle: Klucel (hydroxypropylcellulose) (HPC)): 3 of 6
- survivor count (dose: 1.25 mg/kg/injection, schedule: Q01DX005 (ip), vehicle: Klucel (hydroxypropylcellulose) (HPC)): 2 of 6
- survivor count (dose: 2.5 mg/kg/injection, schedule: Q01DX005 (ip), vehicle: Klucel (hydroxypropylcellulose) (HPC)): 0 of 6
- survivor count (dose: 5.0 mg/kg/injection, schedule: Q01DX005 (ip), vehicle: Klucel (hydroxypropylcellulose) (HPC)): 0 of 6
- survivor count (dose: 10.0 micrograms/kg/injection, schedule: Q01DX005 (ip), vehicle: Klucel (hydroxypropylcellulose) (HPC)): 0 of 6
- T/C (dose: 80.0 micrograms/kg/injection, schedule: Q01DX005 (ip), vehicle: Klucel (hydroxypropylcellulose) (HPC)): 131 % of control
- T/C (dose: 160.0 micrograms/kg/injection, schedule: Q01DX005 (ip), vehicle: Klucel (hydroxypropylcellulose) (HPC)): 129 % of control

Compound: COc1cc(COC(=O)c2ccc(CSc3ccc(Cl)cc3)o2)cc(OC)c1OC
- survivor count (dose: 200.0 mg/kg/injection, schedule: Q01DX005 (ip), vehicle: saline with Tween-80): 6 of 6

Compound: CCC(c1ccc(OC)cc1)C(NCC(=O)NNC(=S)Nc1cccc(C)c1)c1ccc(OC)cc1 (centres undefined)
- survivor count (dose: 400.0 mg/kg/injection, schedule: Q01DX001 (ip), vehicle: saline with Tween-80): 1 of 6

Compound: Cc1ccc(NS(=O)(=O)c2ccccc2)nc1
- survivor count [1]: 6 of 6

Compound: Nc1ncnc2c1c1c(=O)[nH]cnc1n2C1OC(CO)C(O)C1O (centres undefined)
- T/C [2]: 133 % of control

Compound: ClC1=CN(C2=NCCC2)CC1
- survivor count (dose: 50.0 mg/kg/injection, schedule: Q01DX009 (ip), vehicle: saline with Tween-80): 0 of 6
- survivor count [1]: 0 of 6
- survivor count [3]: 0 of 6

Compound: NC(CSC(c1ccccc1)(c1ccccc1)c1ccccc1)C(=O)O (centres undefined)
- T/C (dose: 3.13 mg/kg/injection, schedule: Q01DX009 (ip), vehicle: saline with Tween-80): 125 % of control
- T/C (dose: 6.25 mg/kg/injection, schedule: Q01DX009 (ip), vehicle: saline with Tween-80, evaluated on day 20): 141 % of control
- T/C (dose: 6.25 mg/kg/injection, schedule: Q01DX009 (ip), vehicle: saline with Tween-80, evaluated on day 30): 132 % of control
- T/C (dose: 6.25 mg/kg/injection, schedule: Q01DX009 (ip), vehicle: water): 131 % of control
- T/C (dose: 8.0 mg/kg/injection, schedule: Q01DX009 (ip), vehicle: water): 131, 140, 145 % of control
- T/C (dose: 12.0 mg/kg/injection, schedule: Q01DX009 (ip), vehicle: water): 145 % of control
- T/C (dose: 12.5 mg/kg/injection, schedule: Q01DX009 (ip), vehicle: Klucel (hydroxypropylcellulose) (HPC)): 138 % of control
- T/C (dose: 12.5 mg/kg/injection, schedule: Q01DX009 (ip), vehicle: saline with Tween-80, evaluated on day 20): 137 % of control
- T/C (dose: 12.5 mg/kg/injection, schedule: Q01DX009 (ip), vehicle: saline with Tween-80, evaluated on day 30): 138, 151, 168 % of control
- T/C (dose: 12.5 mg/kg/injection, schedule: Q01DX009 (ip), vehicle: water): 126 and 145 % of control
- T/C (dose: 25.0 mg/kg/injection, schedule: Q01DX009 (ip), vehicle: Klucel (hydroxypropylcellulose) (HPC)): 142 % of control
- T/C [2]: 127 and 146 % of control
- T/C (dose: 40.0 mg/kg/injection, schedule: Q01DX009 (ip), vehicle: water): 127 % of control
- T/C (dose: 50.0 mg/kg/injection, schedule: Q01DX009 (ip), vehicle: Klucel (hydroxypropylcellulose) (HPC)): 141 % of control
- survivor count (dose: 60.0 mg/kg/injection, schedule: Q01DX009 (ip), vehicle: water): 9 of 10 and 10 of 10
- survivor count (dose: 90.0 mg/kg/injection, schedule: Q01DX009 (ip), vehicle: water): 0 of 10 and 8 of 10
- survivor count (dose: 100.0 mg/kg/injection, schedule: Q01DX009 (ip), vehicle: Klucel (hydroxypropylcellulose) (HPC)): 6 of 6
- T/C [1]: 138 % of control (2×)
- survivor count [1]: 5 of 6 and 6 of 6
- survivor count (dose: 100.0 mg/kg/injection, schedule: Q01DX009 (ip), vehicle: water): 0 of 10, 7 of 10, 6 of 6
- survivor count (dose: 150.0 mg/kg/injection, schedule: Q04DX003 (ip), vehicle: Klucel (hydroxypropylcellulose) (HPC)): 6 of 6
- T/C (dose: 160.0 mg/kg/injection, schedule: Q01DX001 (ip), vehicle: water): 127 % of control
- survivor count (dose: 200.0 mg/kg/injection, schedule: Q01DX009 (ip), vehicle: Klucel (hydroxypropylcellulose) (HPC)): 6 of 6
- survivor count [3]: 2 of 6
- T/C (dose: 200.0 mg/kg/injection, schedule: Q01DX009 (oral), vehicle: saline with Tween-80): 135 % of control
- survivor count (dose: 400.0 mg/kg/injection, schedule: Q01DX009 (oral), vehicle: saline with Tween-80): 4 of 6

Compound: O=C(CC(NC(=O)OCc1ccccc1)C(=O)O)OCc1ccccc1 (centres undefined)
- T/C (dose: 400.0 mg/kg/injection, schedule: Q04DX003 (ip), vehicle: saline sonified): 125 % of control [5 of 6 alive]

Compound: c1ccc2c(CN3CCCCC3)c[nH]c2c1
- survivor count (dose: 200.0 mg/kg/injection, schedule: Q04DX003 (ip), vehicle: saline with Tween-80): 2 of 6
